# Results from paper PMC6277169.
# Protein sequences, listed by entry. Tags and fused reporters are not part of them.
# UniProt P00722: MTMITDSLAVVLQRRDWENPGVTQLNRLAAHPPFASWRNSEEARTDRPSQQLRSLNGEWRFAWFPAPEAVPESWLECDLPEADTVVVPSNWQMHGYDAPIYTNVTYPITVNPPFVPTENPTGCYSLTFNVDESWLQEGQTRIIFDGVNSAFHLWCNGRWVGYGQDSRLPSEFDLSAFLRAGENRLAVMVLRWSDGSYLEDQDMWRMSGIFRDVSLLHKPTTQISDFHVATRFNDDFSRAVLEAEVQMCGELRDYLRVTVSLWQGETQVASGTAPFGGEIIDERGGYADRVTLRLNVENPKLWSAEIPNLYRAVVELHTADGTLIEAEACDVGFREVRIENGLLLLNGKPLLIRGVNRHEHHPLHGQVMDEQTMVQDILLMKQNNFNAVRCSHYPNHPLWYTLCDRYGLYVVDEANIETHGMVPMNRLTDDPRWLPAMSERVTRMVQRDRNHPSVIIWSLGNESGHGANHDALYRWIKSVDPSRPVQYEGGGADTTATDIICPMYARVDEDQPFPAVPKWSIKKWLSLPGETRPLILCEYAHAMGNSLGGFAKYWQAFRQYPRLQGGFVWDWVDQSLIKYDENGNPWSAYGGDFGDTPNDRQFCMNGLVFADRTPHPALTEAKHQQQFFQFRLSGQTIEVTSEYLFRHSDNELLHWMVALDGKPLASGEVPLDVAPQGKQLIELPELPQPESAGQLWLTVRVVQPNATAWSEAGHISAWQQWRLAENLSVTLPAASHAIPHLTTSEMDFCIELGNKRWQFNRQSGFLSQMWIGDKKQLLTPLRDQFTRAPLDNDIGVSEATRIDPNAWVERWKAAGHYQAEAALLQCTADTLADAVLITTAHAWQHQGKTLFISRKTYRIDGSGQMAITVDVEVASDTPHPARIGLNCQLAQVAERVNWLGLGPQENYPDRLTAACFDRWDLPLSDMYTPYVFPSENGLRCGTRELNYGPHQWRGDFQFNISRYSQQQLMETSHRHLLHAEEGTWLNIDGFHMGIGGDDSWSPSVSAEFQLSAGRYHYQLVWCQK
# UniProt Q9DBL9: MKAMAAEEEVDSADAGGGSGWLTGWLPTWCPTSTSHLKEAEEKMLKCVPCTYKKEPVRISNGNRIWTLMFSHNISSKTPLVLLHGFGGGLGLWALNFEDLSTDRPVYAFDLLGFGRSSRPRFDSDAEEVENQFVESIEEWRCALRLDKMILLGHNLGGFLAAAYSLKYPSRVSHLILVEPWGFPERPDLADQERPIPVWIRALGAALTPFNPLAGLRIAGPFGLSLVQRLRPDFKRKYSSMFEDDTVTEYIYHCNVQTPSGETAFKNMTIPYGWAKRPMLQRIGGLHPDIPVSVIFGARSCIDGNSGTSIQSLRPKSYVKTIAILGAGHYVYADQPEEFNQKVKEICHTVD
# No constants are given. Whether binding was seen depends on the method and setting. In cells and extracts the contact can be indirect. Some binding calls cover weakened binding; strength is not graded here. Where a sequence is shown, tags or fusion partners need not be part of it.
# What was measured:
# [1] = molecular target: T1, murine FLAG-tagged PNPLA1 (patatin-like phospholipase domain-containing 1) (murine) (UniProt Q3V1D5); assay: co-IP; HEK 293T cells co-transfected; lysis buffer 50 mM Tris/HCl pH 7.4, 150 mM NaCl, 1 mM EDTA, 1% NP-40; 1 mg lysate protein incubated with anti-FLAG M2-agarose beads overnight at 4°C; immunoblot of input and IP
# T1 sequence: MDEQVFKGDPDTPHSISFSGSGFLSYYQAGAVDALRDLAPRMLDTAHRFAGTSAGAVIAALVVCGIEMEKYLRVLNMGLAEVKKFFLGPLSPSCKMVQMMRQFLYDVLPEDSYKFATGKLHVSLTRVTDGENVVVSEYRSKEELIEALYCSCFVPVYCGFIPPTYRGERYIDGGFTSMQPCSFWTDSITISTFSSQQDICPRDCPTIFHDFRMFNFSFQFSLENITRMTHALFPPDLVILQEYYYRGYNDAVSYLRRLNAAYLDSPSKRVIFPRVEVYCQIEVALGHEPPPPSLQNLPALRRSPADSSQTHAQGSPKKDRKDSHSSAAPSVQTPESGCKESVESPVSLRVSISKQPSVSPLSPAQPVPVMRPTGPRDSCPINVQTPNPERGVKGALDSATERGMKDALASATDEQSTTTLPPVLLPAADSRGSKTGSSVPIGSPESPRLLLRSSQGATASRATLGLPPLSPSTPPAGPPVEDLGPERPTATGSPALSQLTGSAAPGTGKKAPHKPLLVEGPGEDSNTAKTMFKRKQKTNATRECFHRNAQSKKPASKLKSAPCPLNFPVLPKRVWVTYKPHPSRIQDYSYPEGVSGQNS
# [2] = molecular target: T2, FLAG-tagged ATGL (adipose triglyceride lipase) (murine) (UniProt Q8BJ56); assay: as above
# T2 sequence: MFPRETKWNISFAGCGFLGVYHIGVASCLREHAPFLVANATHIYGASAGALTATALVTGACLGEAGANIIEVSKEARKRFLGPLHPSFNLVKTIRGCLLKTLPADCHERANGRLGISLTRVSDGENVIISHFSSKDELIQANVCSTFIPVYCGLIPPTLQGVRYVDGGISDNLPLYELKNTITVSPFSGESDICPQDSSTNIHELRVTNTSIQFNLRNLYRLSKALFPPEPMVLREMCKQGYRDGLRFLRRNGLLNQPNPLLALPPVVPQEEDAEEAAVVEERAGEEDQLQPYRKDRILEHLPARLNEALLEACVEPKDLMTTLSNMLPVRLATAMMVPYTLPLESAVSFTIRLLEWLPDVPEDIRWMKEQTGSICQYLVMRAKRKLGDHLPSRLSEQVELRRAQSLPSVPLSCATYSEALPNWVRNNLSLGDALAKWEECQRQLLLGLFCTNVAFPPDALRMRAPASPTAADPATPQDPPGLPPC
Substance,binding [1],binding [2]
His-β-galactosidase (from UniProt P00722 1-1024) (enzyme),no binding,–
murine His-tagged ABHD5 (α/β-hydrolase domain-containing 5) (from UniProt Q9DBL9 1-351),binds,binds
